Test results reported in patent US10793557B2, “Sting agonist compounds” (Merck Sharp & Dohme Corp., priority 2018, dated 2020).
The name of at least one read-out is uncertain.

Tested on: secretion of interferon-beta from THP1 cells
Assay: IFN-β secretion in THP1 cell culture (5 h)
Type: cell-based, human
Settings: compound at 30 μM, 30 uM cGAMP = 100%
Experimental: The ability of compounds to stimulate the secretion of interferon-beta from THP1 cells was measured using a human IFN-β AlphaLISA kit (Perkin Elmer, Cat. No. AL265F). The basic protocol is as follows:
A Labcyte Echo 550 acoustic dispenser was used to transfer 120 nL of compound dissolved in DMSO into the wells of an empty, sterile 384-well microplate, (Corning, Cat. No. 3712). THP1 cells (American Type Culture Collection, Cat. No. TIB202) previously frozen in Recovery Medium (Life Technologies, Cat. No. 12648-010) were thawed and immediately diluted 10-fold into 37° C. assay medium (RPMI 1640+L-Glutamine & phenol red, Life Technologies, Cat. No. 11875-085; 0.5% heat inactivated fetal bovine serum, Sigma Aldrich, Cat. No. F4135; 1 mM Sodium Pyruvate, Life Technologies, Cat. No. 11360-070; 1× non-essential amino acids; Life Technologies, Cat. No. 11140-050). […]
The assay was started by dispensing 40 μL of the previously prepared cell suspension into the wells of the plate containing compounds. […] The plate was then read on a Perkin Elmer Envision (λex=680 nm, […]). The percent effect of the AlphaLISA signal at each compound concentration was calculated based on 30 uM cGAMP positive controls and 0.3% DMSO negative controls. […]
Compounds of the disclosure were evaluated for IFN-β secretion in THP1 cell culture as described above. […]

SMILES: COc1cc2sc(C(=O)C[C@H](C)C(=O)O)cc2c(F)c1OCCCOc1cc2sc(C(=O)[C@@H]3CC[C@H]3C(=O)O)cc2c(F)c1OC (single isomer, unassigned) [Example 97]
- % Effect at 30 μM relative to 2′3′-cGAMP: 54%

SMILES: COc1cc2sc(C(=O)C[C@H](C)C(=O)O)cc2c(F)c1OCCCOc1c(OC)cc2sc(C(=O)[C@@H]3CC[C@H]3C(=O)O)cc2c1F [Example 99, trans-2-(5-(3-((2-((S)-3-carboxybutanoyl)-4-fluoro-6-methoxybenzo[b]thiophen-5-yl)oxy)propoxy)-4-fluoro-6-methoxybenzo[b]thiophene-2-carbonyl)cyclobutane carboxylic acid]
- % Effect at 30 μM relative to 2′3′-cGAMP: 82%
